Results as given in publication PMC12808100, “The non-catalytic DNA polymerase ε subunit is an NPF motif recognition protein” (Nature Communications, 2025).
No constants are given. Whether binding was seen depends on the method and setting. Binding seen in cells or lysates may run through a third protein. Here binding means that the protein was enriched with, or labelled near, the bait; the list need not be complete. For some of these results: A no says only that the protein was not detected with the bait. Sequences can lack the tags named with a protein.

B1: NUMB, endogenous full length (protein, UniProt P49757 1-651)
chain: MNKLRQSFRRKKDVYVPEASRPHQWQTDEEGVRTGKCSFPVKYLGHVEVDESRGMHICEDAVKRLKAERKFFKGFFGKTGKKAVKAVLWVSADGLRVVDEKTKDLIVDQTIEKVSFCAPDRNFDRAFSYICRDGTTRRWICHCFMAVKDTGERLSHAVGCAFAACLERKQKREKECGVTATFDASRTTFTREGSFRVTTATEQAEREEIMKQMQDAKKAETDKIVVGSSVAPGNTAPSPSSPTSPTSDATTSLEMNNPHAIPRRHAPIEQLARQGSFRGFPALSQKMSPFKRQLSLRINELPSTMQRKTDFPIKNAVPEVEGEAESISSLCSQITNAFSTPEDPFSSAPMTKPVTVVAPQSPTFQANGTDSAFHVLAKPAHTALAPVAMPVRETNPWAHAPDAANKEIAATCSGTEWGQSSGAASPGLFQAGHRRTPSEADRWLEEVSKSVRAQQPQASAAPLQPVLQPPPPTAISQPASPFQGNAFLTSQPVPVGVVPALQPAFVPAQSYPVANGMPYPAPNVPVVGITPSQMVANVFGTAGHPQAAHPHQSPSLVRQQTFPHYEASSATTSPFFKPPAQHLNGSAAFNGVDDGRLASADRHTEVPTGTCPVDPFEAQWAALENKSKQRTNPSPTNPFSSDLQKTFEIEL
B2: EPN2, endogenous full length (protein, UniProt O95208 1-641)
chain: MTTSSIRRQMKNIVNNYSEAEIKVREATSNDPWGPSSSLMTEIADLTYNVVAFSEIMSMVWKRLNDHGKNWRHVYKALTLLDYLIKTGSERVAQQCRENIFAIQTLKDFQYIDRDGKDQGINVREKSKQLVALLKDEERLKAERAQALKTKERMAQVATGMGSNQITFGRGSSQPNLSTSHSEQEYGKAGGSPASYHGSPEASLCPQHRTGAPLGQSEELQPLSQRHPFLPHLGLASRPNGDWSQPCLTCDRAARATSPRVSSELEQARPQTSGEEELQLQLALAMSREVAEQEERLRRGDDLRLQMALEESRRDTVKIPKKKEHGSLPQQTTLLDLMDALPSSGPAAQKAEPWGPSASTNQTNPWGGPAAPASTSDPWPSFGTKPAASIDPWGVPTGATVQSVPKNSDPWAASQQPASSAGKRASDAWGAVSTTKPVSVSGSFELFSNLNGTIKDDFSEFDNLRTSKKTAESVTSLPSQNNGTTSPDPFESQPLTVASSKPSSARKTPESFLGPNAALVNLDSLVTRPAPPAQSLNPFLAPGAPATSAPVNPFQVNQPQPLTLNQLRGSPVLGTSTSFGPGPGVESMAVASMTSAAPQPALGATGSSLTPLGPAMMNMVGSVGIPPSAAQATGTTNPFLL
B3: AGFG1, endogenous full length (protein, UniProt P52594 1-562)
chain: MAASAKRKQEEKHLKMLRDMTGLPHNRKCFDCDQRGPTYVNMTVGSFVCTSCSGSLRGLNPPHRVKSISMTTFTQQEIEFLQKHGNEVCKQIWLGLFDDRSSAIPDFRDPQKVKEFLQEKYEKKRWYVPPEQAKVVASVHASISGSSASSTSSTPEVKPLKSLLGDSAPTLHLNKGTPSQSPVVGRSQGQQQEKKQFDLLSDLGSDIFAAPAPQSTATANFANFAHFNSHAAQNSANADFANFDAFGQSSGSSNFGGFPTASHSPFQPQTTGGSAASVNANFAHFDNFPKSSSADFGTFNTSQSHQTASAVSKVSTNKAGLQTADKYAALANLDNIFSAGQGGDQGSGFGTTGKAPVGSVVSVPSQSSASSDKYAALAELDSVFSSAATSSNAYTSTSNASSNVFGTVPVVASAQTQPASSSVPAPFGATPSTNPFVAAAGPSVASSTNPFQTNARGATAATFGTASMSMPTGFGTPAPYSLPTSFSGSFQQPAFPAQAAFPQQTAFSQQPNGAGFAAFGQTKPVVTPFGQVAAAGVSSNPFMTGAPTGQFPTGSSSTNPFL
B4: DNA excision repair protein ERCC-6-like (ERCC6L), endogenous (protein, UniProt Q2NKX8 1-1250)
chain: MEASRRFPEAEALSPEQAAHYLRYVKEAKEATKNGDLEEAFKLFNLAKDIFPNEKVLSRIQKIQEALEELAEQGDDEFTDVCNSGLLLYRELHNQLFEHQKEGIAFLYSLYRDGRKGGILADDMGLGKTVQIIAFLSGMFDASLVNHVLLIMPTNLINTWVKEFIKWTPGMRVKTFHGPSKDERTRNLNRIQQRNGVIITTYQMLINNWQQLSSFRGQEFVWDYVILDEAHKIKTSSTKSAICARAIPASNRLLLTGTPIQNNLQELWSLFDFACQGSLLGTLKTFKMEYENPITRAREKDATPGEKALGFKISENLMAIIKPYFLRRTKEDVQKKKSSNPEARLNEKNPDVDAICEMPSLSRKNDLIIWIRLVPLQEEIYRKFVSLDHIKELLMETRSPLAELGVLKKLCDHPRLLSARACCLLNLGTFSAQDGNEGEDSPDVDHIDQVTDDTLMEESGKMIFLMDLLKRLRDEGHQTLVFSQSRQILNIIERLLKNRHFKTLRIDGTVTHLLEREKRINLFQQNKDYSVFLLTTQVGGVGLTLTAATRVVIFDPSWNPATDAQAVDRVYRIGQKENVVVYRLITCGTVEEKIYRRQVFKDSLIRQTTGEKKNPFRYFSKQELRELFTIEDLQNSVTQLQLQSLHAAQRKSDIKLDEHIAYLQSLGIAGISDHDLMYTCDLSVKEELDVVEESHYIQQRVQKAQFLVEFESQNKEFLMEQQRTRNEGAWLREPVFPSSTKKKCPKLNKPQPQPSPLLSTHHTQEEDISSKMASVVIDDLPKEGEKQDLSSIKVNVTTLQDGKGTGSADSIATLPKGFGSVEELCTNSSLGMEKSFATKNEAVQKETLQEGPKQEALQEDPLESFNYVLSKSTKADIGPNLDQLKDDEILRHCNPWPIISITNESQNAESNVSIIEIADDLSASHSALQDAQASEAKLEEEPSASSPQYACDFNLFLEDSADNRQNFSSQSLEHVEKENSLCGSAPNSRAGFVHSKTCLSWEFSEKDDEPEEVVVKAKIRSKARRIVSDGEDEDDSFKDTSSINPFNTSLFQFSSVKQFDASTPKNDISPPGRFFSSQIPSSVNKSMNSRRSLASRRSLINMVLDHVEDMEERLDDSSEAKGPEDYPEEGVEESSGEASKYTEEDPSGETLSSENKSSWLMTSKPSALAQETSLGAPEPLSGEQLVGSPQDKAAEATNDYETLVKRGKELKECGKIQEALNCLVKALDIKSADPEVMLLTLSLYKQLNNN
B5: SEC23-interacting protein (SEC23IP), endogenous (protein, UniProt Q9Y6Y8 1-1000)
chain: MAERKPNGGSGGASTSSSGTNLLFSSSATEFSFNVPFIPVTQASASPASLLLPGEDSTDVGEEDSFLGQTSIHTSAPQTFSYFSQVSSSSDPFGNIGQSPLTTAATSVGQSGFPKPLTALPFTTGSQDVSNAFSPSISKAQPGAPPSSLMGINSYLPSQPSSLPPSYFGNQPQGIPQPGYNPYRHTPGSSRANPYIAPPQLQQCQTPGPPAHPPPSGPPVQMYQMPPGSLPPVPSSVQSPAQQQVPARPGAPSVQVPSPFLLQNQYEPVQPHWFYCKEVEYKQLWMPFSVFDSLNLEEIYNSVQPDPESVVLGTDGGRYDVYLYDRIRKAAYWEEEPAEVRRCTWFYKGDTDSRFIPYTEEFSEKLEAEYKKAVTTNQWHRRLEFPSGETIVMHNPKVIVQFQPSSVPDEWGTTQDGQTRPRVVKRGIDDNLDEIPDGEMPQVDHLVFVVHGIGPVCDLRFRSIIECVDDFRVVSLKLLRTHFKKSLDDGKVSRVEFLPVHWHSSLGGDATGVDRNIKKITLPSIGRFRHFTNETLLDILFYNSPTYCQTIVEKVGMEINHLHALFMSRNPDFKGGVSVAGHSLGSLILFDILSNQKDLNLSKCPGPLAVANGVVKQLHFQEKQMPEEPKLTLDESYDLVVENKEVLTLQETLEALSLSEYFSTFEKEKIDMESLLMCTVDDLKEMGIPLGPRKKIANFVEHKAAKLKKAASEKKAVAATSTKGQEQSAQKTKDMASLPSESNEPKRKLPVGACVSSVCVNYESFEVGAGQVSVAYNSLDFEPEIFFALGSPIAMFLTIRGVDRIDENYSLPTCKGFFNIYHPLDPVAYRLEPMIVPDLDLKAVLIPHHKGRKRLHLELKESLSRMGSDLKQGFISSLKSAWQTLNEFARAHTSSTQLQEELEKVANQIKEEEEKQVVEAEKVVESPDFSKDEDYLGKVGMLNGGRRIDYVLQEKPIESFNEYLFALQSHLCYWESEDTALLLLKEIYRTMNISPEQPQH
B6: SSBP2, endogenous (protein, UniProt P81877 1-361)
chain: MYGKGKSNSSAVPSDSQAREKLALYVYEYLLHVGAQKSAQTFLSEIRWEKNITLGEPPGFLHSWWCVFWDLYCAAPERRETCEHSSEAKAFHDYSAAAAPSPVLGNIPPGDGMPVGPVPPGFFQPFMSPRYPGGPRPPLRIPNQALGGVPGSQPLLPSGMDPTRQQGHPNMGGPMQRMTPPRGMVPLGPQNYGGAMRPPLNALGGPGMPGMNMGPGGGRPWPNPTNANSIPYSSASPGNYVGPPGGGGPPGTPIMPSPADSTNSGDNMYTLMNAVPPGPNRPNFPMGPGSDGPMGGLGGMESHHMNGSLGSGDMDSISKNSPNNMSLSNQPGTPRDDGEMGGNFLNPFQSESYSPSMTMSV
B7: SSBP3, endogenous (protein, UniProt Q9BWW4 1-388)
chain: MFAKGKGSAVPSDGQAREKLALYVYEYLLHVGAQKSAQTFLSEIRWEKNITLGEPPGFLHSWWCVFWDLYCAAPERRDTCEHSSEAKAFHDYSAAAAPSPVLGNIPPNDGMPGGPIPPGFFQGPPGSQPSPHAQPPPHNPSSMMGPHSQPFMSPRYAGGPRPPIRMGNQPPGGVPGTQPLLPNSMDPTRQQGHPNMGGSMQRMNPPRGMGPMGPGPQNYGSGMRPPPNSLGPAMPGINMGPGAGRPWPNPNSANSIPYSSSSPGTYVGPPGGGGPPGTPIMPSPADSTNSSDNIYTMINPVPPGGSRSNFPMGPGSDGPMGGMGGMEPHHMNGSLGSGDIDGLPKNSPNNISGISNPPGTPRDDGELGGNFLHSFQNDNYSPSMTMSV
B8: LMO4, endogenous (protein, UniProt P61968 1-165)
chain: MVNPGSSSQPPPVTAGSLSWKRCAGCGGKIADRFLLYAMDSYWHSRCLKCSCCQAQLGDIGTSCYTKSGMILCRNDYIRLFGNSGACSACGQSIPASELVMRAQGNVYHLKCFTCSTCRNRLVPGDRFHYINGSLFCEHDRPTALINGHLNSLQSNPLLPDQKVC
B9: PYGO2, endogenous (protein, UniProt Q9BRQ0 1-406)
chain: MAASAPPPPDKLEGGGGPAPPPAPPSTGRKQGKAGLQMKSPEKKRRKSNTQGPAYSHLTEFAPPPTPMVDHLVASNPFEDDFGAPKVGVAAPPFLGSPVPFGGFRVQGGMAGQVPPGYSTGGGGGPQPLRRQPPPFPPNPMGPAFNMPPQGPGYPPPGNMNFPSQPFNQPLGQNFSPPSGQMMPGPVGGFGPMISPTMGQPPRAELGPPSLSQRFAQPGAPFGPSPLQRPGQGLPSLPPNTSPFPGPDPGFPGPGGEDGGKPLNPPASTAFPQEPHSGSPAAAVNGNQPSFPPNSSGRGGGTPDANSLAPPGKAGGGSGPQPPPGLVYPCGACRSEVNDDQDAILCEASCQKWFHRECTGMTESAYGLLTTEASAVWACDLCLKTKEIQSVYIREGMGQLVAANDG
B10: POLE4, endogenous (protein, UniProt Q9NR33 1-117)
chain: MAAAAAAGSGTPREEEGPAGEAAASQPQAPTSVPGARLSRLPLARVKALVKADPDVTLAGQEAIFILARAAELFVETIAKDAYCCAQQGKRKTLQRRDLDNAIEAVDEFAFLEGTLD

Target: His6-AviTag-MBP-TEV-POLE2 (human) (UniProt P56282)
Assay: native holdup (nHU) with mass spectrometry; single point; biotinylated His6-avi-MBP-POLE2 bait on streptavidin resin at 26 μM, His6-avi-MBP as control; Jurkat extract, 4 °C, 2 h; label-free MS of the supernatant; apparent; only the target purified

**Q.** For B1, which binding is on record?
**A.** binds

**Q.** With B2 as the binder, how does the binding read?
**A.** binds

**Q.** For B3, which binding is on record?
**A.** binds

**Q.** With B4 as the binder, how does the binding read?
**A.** binds

**Q.** Which binding does the source give for B5 here?
**A.** binds

**Q.** For B6, which binding is on record?
**A.** binds

**Q.** How did the binding turn out when B7 was run?
**A.** binds

**Q.** B8 was tested. Which binding did it give?
**A.** binds

**Q.** B9 was tested. Which binding did it give?
**A.** no binding (tested: 26 μM POLE2 concentration)

Target: C-terminally MAC3-tagged POLE2, wild type (human) (UniProt P56282)
Assay: proximity labelling; C-terminally MAC3-tagged (ultraID) POLE2 variants in Flp-In T-REx 293 cells, tetracycline 24 h, 50 μM biotin 3 h; Strep-Tactin purification, mass spectrometry, SAINTexpress against GFP control

**Q.** For B10, which binding is on record?
**A.** binds
